# Data taken from the supplement of paper PMC4683952.
# Where a name gives a salt, the structure may show the parent alone. Out of some 1,200 compounds screened, about 50 (4%) showed activity. No stated cut-off is given here; in the data, all actives reach 1.3 or more but so do some inactives. This is one part of the list.
# Tested on: Lgr5 (MarsCy1-Lgr5-EGFP, U2OS)
# Experiment: cell-surface Lgr5 expression (SCi1 fluorescence, background-subtracted) relative to WT DMSO (fold of DMSO control); higher = more Lgr5 at the plasma membrane, active = hit call of the paper
# Conditions: U2OS MarsCy1-Lgr5-EGFP stable; treatment time: overnight; 16 µM; library: Johns Hopkins Clinical Compound Library
row,SMILES,cell-surface Lgr5 expression
1,CC(C)(CO)[C@@H](O)C(=O)NCCC(=O)NCCSSCCNC(=O)CCNC(=O)[C@H](O)C(C)(C)CO [Pantethine (D-Pantethine)],inactive: 1.15
2,N=C(N)NC(=N)NCCc1ccccc1 [Phenformin hydrochloride],inactive: 0.756
3,NCCc1c[nH]cn1 [Histamine],inactive: 1.14
4,OC(Cn1cncn1)(Cn1cncn1)c1ccc(F)cc1F [Fluconazole],inactive: 0.884
5,CC[N+](C)(C)c1cccc(O)c1 [Edrophonium chloride],inactive: 0.605
6,OCCN1CCN(CC/C=C2/c3ccccc3Sc3ccc(C(F)(F)F)cc32)CC1 [cis(Z)-Flupenthixol dihydrochloride],inactive: 1.1
7,Cc1cn[nH]c1 [Fomepizole (4-methylpyrazole)],inactive: 0.991
8,CC(=O)OCC(=O)[C@@]1(O)CC[C@H]2[C@@H]3CCC4=CC(=O)C=C[C@]4(C)[C@@]3(Cl)[C@@H](Cl)C[C@@]21C [Dichlorisone acetate],active: 1.55
9,CCCCN(CCCC)CCCOC(=O)c1ccc(N)cc1 [Butacaine],active: 1.62
10,O.O.O.O.O.O.O.O.O.O.O.O.O=P([O-])([O-])[O-].[Na+].[Na+].[Na+] [Sodium phosphate dodecahydrate],inactive: 1.07
11,CC[N+](C)(CC)CCOC(=O)C1c2ccccc2Oc2ccccc21 [Methantheline bromide],inactive: 0.987
12,CC(=O)OCC(=O)[C@@]1(O)CC[C@H]2[C@@H]3CCC4=CC(=O)CC[C@]4(C)[C@@]3(F)[C@@H](O)C[C@@]21C,active: 1.35
13,NS(=O)(=O)c1cc(C2(O)NC(=O)c3ccccc32)ccc1Cl (stereo not drawn) [Chlorthalidone],inactive: 1.01
14,CCCCCCCCCCCCCCCC(=O)OC/C=C(C)/C=C/C=C(C)/C=C/C1=C(C)CCCC1(C)C [Vitamin A palmitate (Retinol palmitate)],inactive: 0.785
15,C=CC(N)CCC(=O)O (stereo not drawn) [Vigabatrin],active: 1.52
16,Oc1cc(O)c2c(c1)O[C@H](c1ccc(O)c(O)c1)[C@@H](O)C2 [Cianidanol (Catechin)],inactive: 1.15
17,CC(N/C(=N\C#N)Nc1ccncc1)C(C)(C)C (stereo not drawn) [Pinacidil],inactive: 1.13
18,CC[N+](C)(CC)CCOC(=O)C(O)(c1ccccc1)C1CCCCC1 (stereo not drawn) [Oxyphenonium bromide],inactive: 1.16
19,O=C1c2c(O)cccc2Cc2cccc(O)c21 [Anthralin],inactive: 0.843
20,"O=C(Nc1ccc(Cl)cc1)Nc1ccc(Cl)c(Cl)c1 [Trilocarban (3,4,4'-Trichlorocarbanilide, 99%)]",inactive: 0.931
21,CC(=O)OCC(=O)[C@@]1(O)[C@@H](C)C[C@H]2[C@@H]3CCC4=CC(=O)C=C[C@]4(C)[C@@]3(F)[C@@H](O)C[C@@]21C [Betamethasone 21-acetate],active: 1.53
22,CC(=O)OCC(=O)[C@@]1(O)[C@@H](C)C[C@H]2[C@@H]3CCC4=CC(=O)C=C[C@]4(C)[C@@]3(F)[C@@H](O)C[C@@]21C,active: 1.59

# A second format for part of the listing above.
row | SMILES | cell-surface Lgr5 expression
5 | CC[N+](C)(C)c1cccc(O)c1 [Edrophonium chloride] | inactive: 0.605
9 | CCCCN(CCCC)CCCOC(=O)c1ccc(N)cc1 [Butacaine] | active: 1.62

# Following part

row,SMILES,cell-surface Lgr5 expression
1,CC(=O)O [Acetic acid],inactive: 0.709
2,CC12CCC3c4ccc(OC(=O)c5ccccc5)cc4CCC3C1CCC2O (stereo not drawn) [β-Estradiol 3-benzoate],inactive: 0.953
3,C[C@@H]1C[C@H]2[C@@H]3C[C@H](F)C4=CC(=O)C=C[C@]4(C)[C@@]3(F)[C@@H](O)C[C@]2(C)[C@@]1(O)C(=O)CO [Flumethasone],active: 1.48
4,O=C(O)Cc1ccc(-c2ccccc2)cc1 [Felbinac (4-biphenylacetic acid)],inactive: 1.2
5,O=C(O)c1cn(-c2ccc(F)cc2)c2cc(N3CCNCC3)c(F)cc2c1=O [Sarafloxacin HCl],inactive: 0.947
6,C[N+]1(C)CCC(OC(=O)C(O)(c2ccccc2)C2CCCC2)C1 (stereo not drawn) [Glycopyrrolate],inactive: 0.998
7,Clc1ccc(CCC(Cn2ccnc2)Sc2c(Cl)cccc2Cl)cc1 (stereo not drawn) [Butoconazole nitrate],inactive: 0.782
8,N#Cc1ccc(C(c2ccc(C#N)cc2)n2cncn2)cc1 [Letrozole],inactive: 1.01
9,Cc1cc(OS(=O)(=O)O)c2ccccc2c1OS(=O)(=O)O [Menadiol disulfate disodium salt trihydrate],inactive: 0.856
10,N=C(NCCCCCCNC(=N)NC(=N)Nc1ccc(Cl)cc1)NC(=N)Nc1ccc(Cl)cc1 [Chlorhexidine gluconate],inactive: 1.08
11,NCc1ccccc1CC(=O)N[C@@H]1C(=O)N2C(C(=O)O)=C(CSc3nnnn3CC(=O)O)CS[C@H]12 [Ceforanide],inactive: 1.11
12,COc1c2occc2cc2ccc(=O)oc12 [Methoxsalen (8-Methoxypsoralen)],inactive: 1.03
13,OC[C@@H](O)[C@@H](O)[C@H](O)[C@@H](O)CO [D-Sorbitol],inactive: 1.12
14,"S=C=Nc1ccc(N=C=S)cc1 [Bitoscanate (1,4 phenylene disothiocyanate)]",inactive: 1.14
15,Cc1ncc(C[n+]2csc(CCOP(=O)(O)O)c2C)c(N)n1 [Monophosphothiamine (Thiamine Monophosphate chloride)],inactive: 0.743
16,CCOC(=O)c1ccc(O)c(OC)c1 [Ethyl vanillate],inactive: 1.06
17,CN(C)CCCOc1nn(Cc2ccccc2)c2ccccc12 [Benzydamine],inactive: 1.11
18,Cc1cc2nc3ccc(N(C)C)cc3[s+]c2cc1N [Tolonium chloride (Toluidine blue O)],inactive: 1.15
19,Nc1ccc(S(=O)(=O)Nc2ccc(Cl)nn2)cc1 [Sulfachlorpyridazine],inactive: 0.987
20,CN1CCC(CN2c3ccccc3Sc3ccccc32)C1 (stereo not drawn) [Methdilazine hydrochloride],inactive: 1
21,C[C@H]1C[C@H]2[C@@H]3CCC4=CC(=O)C=C[C@]4(C)[C@@]3(Cl)[C@@H](O)C[C@]2(C)[C@@]1(O)C(=O)CO [Beclomethasone],active: 1.36
